Laboratory results: PubChem BioAssay AID504791 (Drosophila RNAi Screening Center, 2011)
Screen: 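Genes of the fly required for silencing by miRNA, siRNA or endo-siRNA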 (primary screen). System: Drosophila S2-derived reporter cells. Knock-down reagent: long dsRNA against Drosophila genes, about 150-250 ng dsRNA per well (siRNA assay); about 80-120 ng (miRNA assay). Duration: about 5 days (siRNA assay); about 4 days (miRNA assay). Challenge: copper sulfate induction of reporters: 25 µM (siRNA assay); 200 mM stated (miRNA assay), 1-2 days before reading. Measured: 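Per-well ratio of Renilla over firefly light, expressed relative to that plate's average ratio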. Reading the numbers: siRNA reporter hit score: higher = 3 marks a strong hit with raised ratio; -3 a strong hit with lowered ratio. Units: stable assay Renilla, run 1 in luminescence; stable assay firefly, run 1 in luminescence. Call rule: 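a well was a first-pass pick when its plate-scaled ratio rose above 1.5 (siRNA assay) or 1.6 (miRNA assay), or dropped below 0.6; a gene counted only if two separate dsRNAs agreed on retest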.
In all, the deposit lists about 23,000 reagents; this is an unselected part of those that have a named target and a result. In the full data, 199 (0.86%) are marked active. 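Plate-scaled ratios behind the calls are not deposited; printed light signals are raw; many rows marked increased or decreased are still called inactive.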 Unmarked entries are inactive. Reagents against one gene are numbered here.

How did the screen score step (steppke) #1?
stable assay Renilla, run 1: 7848; stable assay firefly, run 1: 6.00e5

For step (steppke) #2, what was measured?
siRNA reporter hit score: 3; stable assay Renilla, run 1: 6398; stable assay firefly, run 1: 4.05e5

What is on record for Npc1b (Niemann-Pick type C-1b)?
stable assay Renilla, run 1: 5703; stable assay firefly, run 1: 2.81e5

With CG10543 #1, what does the deposit list?
stable assay Renilla, run 1: 5895; stable assay firefly, run 1: 3.65e5

For CG10543 #2, what does the deposit list?
stable assay Renilla, run 1: 3232; stable assay firefly, run 1: 3.45e5

Which result is listed for CAP #1?
stable assay Renilla, run 1: 9230; stable assay firefly, run 1: 5.16e5

For CAP #2, what was measured?
stable assay Renilla, run 1: 8708; stable assay firefly, run 1: 6.06e5

Which result is listed for CAP #3?
stable assay Renilla, run 1: 4947; stable assay firefly, run 1: 2.86e5

For CAP #4, what was measured?
stable assay Renilla, run 1: 6927; stable assay firefly, run 1: 4.52e5

How did the screen score CAP #5?
stable assay Renilla, run 1: 6669; stable assay firefly, run 1: 4.52e5

What is on record for Su(var)3-9 (Suppressor of variegation 3-9)?
stable assay Renilla, run 1: 6163; stable assay firefly, run 1: 3.59e5

2 entries from above, showing only “stable assay Renilla, run 1”:
CAP #5	6669
Su(var)3-9 (Suppressor of variegation 3-9)	6163

The list goes on:
Which result is listed for Dolk (Dolichol kinase)?
stable assay Renilla, run 1: 5687; stable assay firefly, run 1: 3.11e5

With CG17698, what was measured?
stable assay Renilla, run 1: 6859; stable assay firefly, run 1: 4.01e5

With CG31606, what was measured?
stable assay Renilla, run 1: 5024; stable assay firefly, run 1: 3.46e5

What is on record for CG15529?
stable assay Renilla, run 1: 7379; stable assay firefly, run 1: 4.61e5

What is on record for qkr58E-1 (quaking related 58E-1)?
stable assay Renilla, run 1: 13851; stable assay firefly, run 1: 5.40e5

For Unr (Upstream of N-ras), how do the results read?
stable assay Renilla, run 1: 8658; stable assay firefly, run 1: 4.01e5

Which result is listed for niki (nimA-like kinase)?
stable assay Renilla, run 1: 5459; stable assay firefly, run 1: 3.78e5

With CG43897 #1, what does the deposit list?
stable assay Renilla, run 1: 3956; stable assay firefly, run 1: 1.62e5

With CG43897 #2, how do the results read?
stable assay Renilla, run 1: 5692; stable assay firefly, run 1: 3.41e5

What did the screen give for CG43897 #3?
stable assay Renilla, run 1: 3244; stable assay firefly, run 1: 3.80e5
